PubChem BioAssay AID1159584 – Peter MacCallum Cancer Centre | 2016

Aim: 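Genes whose loss is lethal only together with E-cadherin loss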 (primary screen)
System: human MCF10A breast epithelial cells, parental and CDH1-null
Knock-down reagent: siRNA against human genes
Read-out: 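ATP luminescence (CellTiter-Glo) viability per line relative to mean mock wells over all plates, and the ratio of CDH1-null to parental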
Reading the numbers: CDH1-null / parental viability ratio: higher = CDH1-null cells survive relatively better than parental
Here is a random part of about 18,000 reagents. Further read-outs or replicates are left out here. Not given: the amount of reagent, the time to read-out.

{"Gene": "LIME1", "CDH1-null / parental viability ratio": 0.9}
{"Gene": "CLEC12B", "CDH1-null / parental viability ratio": 0.98}
{"Gene": "F8A1", "CDH1-null / parental viability ratio": 0.99}
{"Gene": "DCDC2", "CDH1-null / parental viability ratio": 0.67}
{"Gene": "UNC79", "CDH1-null / parental viability ratio": 1.24}
{"Gene": "ABHD17C", "CDH1-null / parental viability ratio": 0.82}
{"Gene": "SRSF7", "CDH1-null / parental viability ratio": 1.06}
{"Gene": "TTC8", "CDH1-null / parental viability ratio": 0.97}

Continued (2 carried over from the part before).
{"Gene": "SRSF7", "CDH1-null / parental viability ratio": 1.06}
{"Gene": "TTC8", "CDH1-null / parental viability ratio": 0.97}
{"Gene": "ELOVL7", "CDH1-null / parental viability ratio": 0.86}
{"Gene": "CXCR6", "CDH1-null / parental viability ratio": 1.23}
{"Gene": "PKM", "CDH1-null / parental viability ratio": 0.98}
{"Gene": "SLC22A24", "CDH1-null / parental viability ratio": 0.8}
{"Gene": "GPR171", "CDH1-null / parental viability ratio": 0.76}
{"Gene": "SRBD1", "CDH1-null / parental viability ratio": 0.87}
{"Gene": "WDR45B", "CDH1-null / parental viability ratio": 1.08}
{"Gene": "FAM184A", "CDH1-null / parental viability ratio": 1.06}
{"Gene": "EPS8L2", "CDH1-null / parental viability ratio": 1}
{"Gene": "TAS2R16", "CDH1-null / parental viability ratio": 0.99}
{"Gene": "CYLD", "CDH1-null / parental viability ratio": 1}
{"Gene": "CCL3L3", "CDH1-null / parental viability ratio": 0.82}
{"Gene": "ECD", "CDH1-null / parental viability ratio": 0.74}
{"Gene": "IDUA", "CDH1-null / parental viability ratio": 0.96}
{"Gene": "ELAVL3", "CDH1-null / parental viability ratio": 0.76}
{"Gene": "CCDC150", "CDH1-null / parental viability ratio": 0.9}
